Data source: PubChem BioAssay AID1904 (GNF, 2009)
Only reagents picked out of a larger screen are listed. 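Lists only primary-screen hits; phenotype classes come from fitted traces, and the underlying luminescence values are not given.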 Reagent sequences are not shown.

Aim: 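Novel clock parts and modifiers of the cell-autonomous circadian rhythm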 (follow-up of hits)
System: human U2OS osteosarcoma cells stably expressing a destabilised luciferase driven by the Bmal1 promoter
Reagent: siRNA pair against human genes, 12.5 nM (two siRNAs, 0.5 pmol each, per well)
Duration: about 3 days after transfection, then luminescence recorded for about 4 days
Measurement: 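Period and amplitude fitted from detrended luminescence traces taken every 2 hours; duplicate wells averaged, compared with the screen mean and grouped into phenotype classes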
Hit rule: 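Scored active if separate single siRNAs repeated the clock phenotype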
Meaning of the calls: active = confirmed by single siRNAs; inactive = not confirmed

{"Gene": "CASC1", "PubChem SID": "SID85117455", "clock phenotype class": "shorter clock period; seen with two independent siRNA pairs for the gene", "confirmed with single siRNAs": "phenotype reproduced by individual siRNAs", "Call": "active"}
{"Gene": "CASC1", "PubChem SID": "SID85128279", "clock phenotype class": "shorter clock period; seen with two independent siRNA pairs for the gene", "confirmed with single siRNAs": "phenotype reproduced by individual siRNAs", "Call": "active"}
{"Gene": "DJ467N11.1", "PubChem SID": "SID85117988", "clock phenotype class": "longer clock period; seen with two independent siRNA pairs for the gene", "confirmed with single siRNAs": "phenotype reproduced by individual siRNAs", "Call": "active"}
{"Gene": "DJ467N11.1", "PubChem SID": "SID85128812", "clock phenotype class": "longer clock period; seen with two independent siRNA pairs for the gene", "confirmed with single siRNAs": "phenotype reproduced by individual siRNAs", "Call": "active"}
{"Gene": "CDK3", "PubChem SID": "SID85105420", "clock phenotype class": "longer clock period; seen with two independent siRNA pairs for the gene", "confirmed with single siRNAs": "phenotype reproduced by individual siRNAs", "Call": "active"}
{"Gene": "CDK3", "PubChem SID": "SID85112643", "clock phenotype class": "longer clock period; seen with two independent siRNA pairs for the gene", "confirmed with single siRNAs": "phenotype reproduced by individual siRNAs", "Call": "active"}
{"Gene": "C20orf160", "PubChem SID": "SID85104117", "clock phenotype class": "shorter clock period; seen with two independent siRNA pairs for the gene", "confirmed with single siRNAs": "phenotype not reproduced by individual siRNAs", "Call": "inconclusive"}
{"Gene": "C20orf160", "PubChem SID": "SID85111340", "clock phenotype class": "shorter clock period; seen with two independent siRNA pairs for the gene", "confirmed with single siRNAs": "phenotype not reproduced by individual siRNAs", "Call": "inconclusive"}
{"Gene": "K-ALPHA-1", "PubChem SID": "SID85102437", "clock phenotype class": "longer clock period; seen with two independent siRNA pairs for the gene", "confirmed with single siRNAs": "phenotype reproduced by individual siRNAs", "Call": "active"}
{"Gene": "K-ALPHA-1", "PubChem SID": "SID85109660", "clock phenotype class": "longer clock period; seen with two independent siRNA pairs for the gene", "confirmed with single siRNAs": "phenotype reproduced by individual siRNAs", "Call": "active"}
{"Gene": "UBQLN4", "PubChem SID": "SID85103390", "clock phenotype class": "shorter clock period; seen with two independent siRNA pairs for the gene", "confirmed with single siRNAs": "phenotype reproduced by individual siRNAs", "Call": "active"}
{"Gene": "UBQLN4", "PubChem SID": "SID85110613", "clock phenotype class": "shorter clock period; seen with two independent siRNA pairs for the gene", "confirmed with single siRNAs": "phenotype reproduced by individual siRNAs", "Call": "active"}
{"Gene": "CBLN1", "PubChem SID": "SID85113462", "clock phenotype class": "longer clock period; seen with two independent siRNA pairs for the gene", "confirmed with single siRNAs": "phenotype not reproduced by individual siRNAs", "Call": "inconclusive"}
{"Gene": "CBLN1", "PubChem SID": "SID85124286", "clock phenotype class": "longer clock period; seen with two independent siRNA pairs for the gene", "confirmed with single siRNAs": "phenotype not reproduced by individual siRNAs", "Call": "inconclusive"}
{"Gene": "GFAP", "PubChem SID": "SID85113632", "clock phenotype class": "longer clock period; seen with two independent siRNA pairs for the gene", "confirmed with single siRNAs": "phenotype reproduced by individual siRNAs", "Call": "active"}
{"Gene": "GFAP", "PubChem SID": "SID85124456", "clock phenotype class": "longer clock period; seen with two independent siRNA pairs for the gene", "confirmed with single siRNAs": "phenotype reproduced by individual siRNAs", "Call": "active"}
{"Gene": "RPS4X", "PubChem SID": "SID85114446", "clock phenotype class": "longer clock period; seen with two independent siRNA pairs for the gene", "confirmed with single siRNAs": "not retested with individual siRNAs"}
{"Gene": "RPS4X", "PubChem SID": "SID85125270", "clock phenotype class": "longer clock period; seen with two independent siRNA pairs for the gene", "confirmed with single siRNAs": "not retested with individual siRNAs"}
{"Gene": "MGC16733", "PubChem SID": "SID85119616", "clock phenotype class": "longer clock period; seen with two independent siRNA pairs for the gene", "confirmed with single siRNAs": "not retested with individual siRNAs"}
{"Gene": "MGC16733", "PubChem SID": "SID85130440", "clock phenotype class": "longer clock period; seen with two independent siRNA pairs for the gene", "confirmed with single siRNAs": "not retested with individual siRNAs"}
{"Gene": "GUCY2C", "PubChem SID": "SID85099864", "clock phenotype class": "shorter clock period; seen with one siRNA pair in duplicate wells", "confirmed with single siRNAs": "phenotype reproduced by individual siRNAs", "Call": "active"}
{"Gene": "GUCY2C", "PubChem SID": "SID85107087", "clock phenotype class": "shorter clock period; seen with one siRNA pair in duplicate wells", "confirmed with single siRNAs": "phenotype reproduced by individual siRNAs", "Call": "active"}
{"Gene": "FBXO45", "PubChem SID": "SID85104172", "clock phenotype class": "longer clock period; seen with two independent siRNA pairs for the gene", "confirmed with single siRNAs": "phenotype reproduced by individual siRNAs", "Call": "active"}
{"Gene": "FBXO45", "PubChem SID": "SID85111395", "clock phenotype class": "longer clock period; seen with two independent siRNA pairs for the gene", "confirmed with single siRNAs": "phenotype reproduced by individual siRNAs", "Call": "active"}
{"Gene": "FUCA1", "PubChem SID": "SID85099550", "clock phenotype class": "shorter clock period; seen with one siRNA pair in duplicate wells", "confirmed with single siRNAs": "phenotype reproduced by individual siRNAs", "Call": "active"}
{"Gene": "FUCA1", "PubChem SID": "SID85106773", "clock phenotype class": "shorter clock period; seen with one siRNA pair in duplicate wells", "confirmed with single siRNAs": "phenotype reproduced by individual siRNAs", "Call": "active"}
{"Gene": "KIAA1287", "PubChem SID": "SID85117815", "clock phenotype class": "longer clock period; seen with two independent siRNA pairs for the gene", "confirmed with single siRNAs": "phenotype reproduced by individual siRNAs", "Call": "active"}
{"Gene": "KIAA1287", "PubChem SID": "SID85128639", "clock phenotype class": "longer clock period; seen with two independent siRNA pairs for the gene", "confirmed with single siRNAs": "phenotype reproduced by individual siRNAs", "Call": "active"}

Records listed so far whose gene name starts with U or u:
{"Gene": "UBQLN4", "PubChem SID": "SID85103390", "clock phenotype class": "shorter clock period; seen with two independent siRNA pairs for the gene", "confirmed with single siRNAs": "phenotype reproduced by individual siRNAs", "Call": "active"}
{"Gene": "UBQLN4", "PubChem SID": "SID85110613", "clock phenotype class": "shorter clock period; seen with two independent siRNA pairs for the gene", "confirmed with single siRNAs": "phenotype reproduced by individual siRNAs", "Call": "active"}
